{"source": "patent US20120121574A1", "about": "“ANTIMICROBIAL, ANTIVIRAL, ANTICANCER AND IMMUNOMODULATORY PEPTIDES AND USES THEREFORE” (priority 2010, published 2012)", "key": {"[1]": {"test_system": "C. albicans strain UM4", "assay": "CFU assay against caspofungin resistant C. albicans UM4", "format": "cell-based, Candida albicans", "conditions": "Table III, in vitro"}, "[2]": {"test_system": "E. coli ATCC 25922 strain", "assay": "CFU assay against E. coli", "format": "cell-based, Escherichia coli", "conditions": "Table III; in vitro"}, "[3]": {"test_system": "S. aureus 29213 strain", "assay": "CFU assay against S. aureus", "format": "cell-based, Staphylococcus aureus", "conditions": "Table III; in vitro", "experimental": "(§1) In vitro activity of N10K against S. aureus 29213 strain. The microbicidal activity of N10K peptide against S. aureus has been evaluated by a conventional CFU assay. Cells of S. aureus 29213 have been incubated at 37° C. for 5 hours in the presence of N10K at the concentration of 50, 45 or 40 micrograms/ml, or in distilled water as control growth. After the incubation period, the cell suspensions have been plated on Mueller Hinton agar, then incubated at 37° C. and observed for CFU enumeration after 24 hours.\nas §1, with “T11F” for “N10K”, “bactericidal” for “microbicidal”, “40” for “45”, “30” for “40”\nIn vitro activity of H4L against S. aureus 29213 strain. The bactericidal activity of H4L peptide against S. aureus has been evaluated by a conventional CFU) assay. Cells of S. aureus 29213 have been incubated at 37° C. for 5 hours in the presence of peptides at the concentration of 100 micrograms/ml, or in distilled water as control growth. After the incubation period, the cell suspensions have been plated on Mueller Hinton agar, then incubated at 37° C. and observed for CFU enumeration after 24 hours.\nas §1, with “MoA VHCDR3” for “N10K”, “100” for “50, 45 or 40”"}, "[4]": {"test_system": "C. albicans SA40 strain", "assay": "murine model of vaginal candidiasis, fluconazole-susceptible strain", "format": "in vivo, mice", "conditions": "peptide 25 micrograms intravaginally 1, 24 and 48 hours after challenge"}, "[5]": {"test_system": "K. pneumoniae ATCC 700603 strain", "assay": "CFU assay against K. pneumoniae", "format": "cell-based, Klebsiella pneumoniae", "conditions": "Table III; in vitro"}, "[6]": {"test_system": "P. aeruginosa ATCC 25853 strain", "assay": "CFU assay against P. aeruginosa", "format": "cell-based, Pseudomonas aeruginosa", "conditions": "Table III; in vitro"}, "[7]": {"test_system": "HIV BaL (R5)", "assay": "in vitro HIV BaL infection of PBMC, p24 ELISA", "format": "cell-based, HIV-1"}, "[8]": {"test_system": "C. albicans AIDS68 strain", "assay": "murine model of vaginal candidiasis, fluconazole-resistant strain", "format": "in vivo, mice", "conditions": "peptide 25 micrograms intravaginally 1, 24 and 48 hours after challenge", "experimental": "(§2) In vivo activity of N10K against vaginal candidiasis caused in mice by the fluconazole-resistant C. albicans AIDS68 strain. The anticandidal therapeutic activity of N10K was evaluated in a murine model of vaginal candidiasis. Groups of 5 mice were injected subcutaneously with 0.02 mg of estradiol benzoate in 100 μl of saline solution, […] and weekly thereafter. Then, mice given intravaginally 10^6 cells of the fluconazole-resistant C. albicans strain AIDS68 in 20 μl of saline solution on day 0 and were sampled for intravaginal CFU. N10K, 25 micrograms, was intravaginally administered in comparison to an irrelevant peptide (SP) as control, 1, 24 and 48 hours after the infectious challenge and sampled for intravaginal CFU at days 1, 2, 5, 7, 14, 21, and 28. The statistical significance was assessed by two-tailed Student's t test. On days 1, 2, 5, 7, 14, and 21, the differences in the CFU vaginal counts between N10K treated, untreated, SP treated and fluconazole treated animals were statistically significant (P<0.05) (Table VI).\nas §2, with “T11F” for “N10K”, “T11F,” for “N10K,”, “VIII).” for “VI).”"}, "[9]": {"test_system": "SKme128 melanoma cells", "assay": "melanoma cell viability by Trypan Blue exclusion", "conditions": "Table III; Cancer cells"}}, "note": "Not every detail of the peptide structures is certain; ends, links or a residue may be inferred. Where no end group is shown, it is not given here."}
{"sequence": "NQVSLTCLVK [Peptide N10K, N Q V S L T C L V K]", "values": [{"measurement": "Activity", "setting": "[1]", "result": "cidal"}, {"measurement": "Activity", "setting": "[2]", "result": "cidal"}, {"measurement": "Activity", "setting": "[3]", "result": "cidal"}, {"measurement": "CFU vaginal counts", "setting": "[4]; Day 0", "result": ">100"}, {"measurement": "CFU vaginal counts", "setting": "[4]; Day 1", "result": "72.6 ± 2.2"}, {"measurement": "CFU vaginal counts", "setting": "[4]; Day 2", "result": "60 ± 1.9"}, {"measurement": "CFU vaginal counts", "setting": "[4]; Day 5", "result": "50.4 ± 3.1"}, {"measurement": "CFU vaginal counts", "setting": "[4]; Day 7", "result": "29.2 ± 0.8"}, {"measurement": "CFU vaginal counts", "setting": "[4]; Day 14", "result": "12 ± 2.6"}, {"measurement": "CFU vaginal counts", "setting": "[4]; Day 21", "result": "2.4 ± 1.3"}, {"measurement": "CFU vaginal counts", "setting": "[4]; Day 28", "result": 0}, {"measurement": "Activity", "setting": "[5]", "result": "cidal"}, {"measurement": "Activity", "setting": "[6]", "result": "cidal"}, {"measurement": "viral replication (p24 antigen)", "setting": "[7]; pre-incubation protocol, 10 micrograms/ml for two hours before infection", "result": "normal"}, {"measurement": "CFU vaginal counts", "setting": "[8]; Day 0", "result": ">100"}, {"measurement": "CFU vaginal counts", "setting": "[8]; Day 1", "result": "70.6 ± 1.7"}, {"measurement": "CFU vaginal counts", "setting": "[8]; Day 2", "result": "55.4 ± 1.9"}, {"measurement": "CFU vaginal counts", "setting": "[8]; Day 5", "result": "51.2 ± 2.1"}, {"measurement": "CFU vaginal counts", "setting": "[8]; Day 7", "result": "26.6 ± 1.7"}, {"measurement": "CFU vaginal counts", "setting": "[8]; Day 14", "result": "13 ± 1.3"}, {"measurement": "CFU vaginal counts", "setting": "[8]; Day 21", "result": "2.2 ± 1.1"}, {"measurement": "CFU vaginal counts", "setting": "[8]; Day 28", "result": 0}, {"measurement": "Activity", "setting": "[9]", "result": "inhibitory"}]}
{"sequence": "TCRVDHRGLTF [Peptide T11F, T C R V D H R G L T F]", "values": [{"measurement": "Activity", "setting": "[1]", "result": "cidal"}, {"measurement": "Activity", "setting": "[2]", "result": "cidal"}, {"measurement": "Activity", "setting": "[3]", "result": "cidal"}, {"measurement": "CFU vaginal counts", "setting": "[4]; Day 0", "result": ">100"}, {"measurement": "CFU vaginal counts", "setting": "[4]; Day 1", "result": "63.2 ± 2.1"}, {"measurement": "CFU vaginal counts", "setting": "[4]; Day 2", "result": "54.8 ± 1.9"}, {"measurement": "CFU vaginal counts", "setting": "[4]; Day 5", "result": "46.2 ± 1.9"}, {"measurement": "CFU vaginal counts", "setting": "[4]; Day 7", "result": "24.8 ± 1.5"}, {"measurement": "CFU vaginal counts", "setting": "[4]; Day 14", "result": "10.6 ± 1.2"}, {"measurement": "CFU vaginal counts", "setting": "[4]; Day 21", "result": "2.2 ± 1"}, {"measurement": "CFU vaginal counts", "setting": "[4]; Day 28", "result": 0}, {"measurement": "Activity", "setting": "[5]", "result": "cidal"}, {"measurement": "Activity", "setting": "[6]", "result": "cidal"}, {"measurement": "viral replication (p24 antigen)", "setting": "[7]; 10 micrograms/ml added every 4 days after infection", "result": "keep low the BaL replication only if it was supplied every 4 days after infection"}, {"measurement": "CFU vaginal counts", "setting": "[8]; Day 0", "result": ">100"}, {"measurement": "CFU vaginal counts", "setting": "[8]; Day 1", "result": "62.2 ± 2"}, {"measurement": "CFU vaginal counts", "setting": "[8]; Day 2", "result": "54.2 ± 2"}, {"measurement": "CFU vaginal counts", "setting": "[8]; Day 5", "result": "53.2 ± 1.3"}, {"measurement": "CFU vaginal counts", "setting": "[8]; Day 7", "result": "21.2 ± 1"}, {"measurement": "CFU vaginal counts", "setting": "[8]; Day 14", "result": "10 ± 0.9"}, {"measurement": "CFU vaginal counts", "setting": "[8]; Day 21", "result": "1.8 ± 1.3"}, {"measurement": "CFU vaginal counts", "setting": "[8]; Day 28", "result": 0}, {"measurement": "Activity", "setting": "[9]", "result": "inhibitory"}]}
